Measurements published in PubChem BioAssay (NCATS).
Inconclusive means that the source gave no clear call. Such entries were picked first, then a sample of the others. Potencies of inconclusive entries are doubtful fits and often do not repeat. The source made the active and inactive calls. The call rests on the fitted dose curve; in most records, active means well fitted inhibition curve with a large enough effect; inconclusive means small, poorly fitted or top-dose-only effect; inactive means no such curve, though single readings can be large or run the other way.
On the % scale 0 is the no-effect control and ±100 the full control effect; potency means the concentration at half of the fitted maximal effect.

Protein sequences, listed by entry. Tags and fused reporters are not part of them. Lines headed by an entry give the natural chain unless they say otherwise; changes in a name come on top.
UniProt Q8WZA2: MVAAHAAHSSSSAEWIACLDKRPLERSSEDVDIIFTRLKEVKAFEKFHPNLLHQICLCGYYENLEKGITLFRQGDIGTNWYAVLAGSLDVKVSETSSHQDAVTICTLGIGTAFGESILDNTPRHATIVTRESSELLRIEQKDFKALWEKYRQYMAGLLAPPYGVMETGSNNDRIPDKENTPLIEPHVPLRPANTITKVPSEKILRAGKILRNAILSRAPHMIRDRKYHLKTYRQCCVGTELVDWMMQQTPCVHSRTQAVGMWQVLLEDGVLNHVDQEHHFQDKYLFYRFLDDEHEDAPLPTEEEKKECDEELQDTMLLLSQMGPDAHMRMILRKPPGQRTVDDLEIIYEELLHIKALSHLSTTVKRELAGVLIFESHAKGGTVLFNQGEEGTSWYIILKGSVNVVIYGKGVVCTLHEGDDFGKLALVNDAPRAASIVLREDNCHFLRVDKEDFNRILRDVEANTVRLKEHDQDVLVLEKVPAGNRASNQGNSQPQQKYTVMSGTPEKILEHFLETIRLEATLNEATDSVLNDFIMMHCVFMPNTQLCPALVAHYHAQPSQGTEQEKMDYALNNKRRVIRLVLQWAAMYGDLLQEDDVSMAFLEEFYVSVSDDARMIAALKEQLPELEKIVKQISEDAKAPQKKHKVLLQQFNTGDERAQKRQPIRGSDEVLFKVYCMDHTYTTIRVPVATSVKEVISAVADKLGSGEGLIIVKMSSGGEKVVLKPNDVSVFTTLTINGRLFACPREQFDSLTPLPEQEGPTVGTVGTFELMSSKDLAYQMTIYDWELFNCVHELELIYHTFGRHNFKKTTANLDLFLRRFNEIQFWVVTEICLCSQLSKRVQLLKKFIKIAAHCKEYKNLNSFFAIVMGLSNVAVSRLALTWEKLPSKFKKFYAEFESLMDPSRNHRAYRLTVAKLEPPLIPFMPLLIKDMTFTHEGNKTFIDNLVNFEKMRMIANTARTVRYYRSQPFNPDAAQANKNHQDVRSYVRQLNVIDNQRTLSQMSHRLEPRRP

Each compound was assayed against Rap guanine nucleotide exchange factor 4 (Homo sapiens) (UniProt Q8WZA2) (assay: Confirmatory qHTS for antagonist of cAMP-regulated guanine nucleotide exchange factor 4 (EPAC2) (AID 1645885; further: nearly all actives have a fitted effect of over 25% in size)). Conditions: EPAC2 Rap1B-BODIPY-GDP exchange fluorescence, biochemical; activity change, negative = inhibition: at 12.7 µM (top of the series) unless noted; series mostly up to 114 µM.
O=C(N/N=C\c1c(O)ccc2ccccc12)c1ccc(S(=O)(=O)N2CCCCC2)cc1 was tested, and the Potency was “inactive”.
In the case of C[n+]1ccc(/C=C/c2c[nH]c3ccccc23)cc1, the Potency is reported as inconclusive: 84.9 µM [inhibitor, single point].
In the case of CC1CCN(c2ccc3c(c2)S(=O)(=O)c2cccc(C(=O)NC4CCCCC4)c2C3=O)CC1, the Potency is reported as inconclusive: 33.8 µM [inhibitor, full curve, poor fit].
In the case of Cc1ccc2c(c1)N(Cc1cccc(F)c1)C(=O)C(C)O2 (stereo not given), the Potency is reported as inconclusive: 23.9 µM [inhibitor, single point].
For COc1cccc(Nc2nnc(-c3cc4ccc(O)cc4oc3=O)s2)c1, the Potency was inconclusive: 0.19 µM [inhibitor, full curve, poor fit].
In the case of COCCn1c2nc(=O)n(-c3ccccc3)c(=O)c-2nc2ccccc21, the Potency is reported as active: 75.7 µM.
In the case of COc1ccc(Nc2cccc3ccccc23)cc1, the Potency is reported as inconclusive: 33.8 µM [inhibitor, partial curve].
CN1CC=C2C(C#N)=C(N)C(C#N)(C#N)C(c3ccsc3)C2C1 (stereo not given) was tested, and the Potency was inconclusive: 7.57 µM [inhibitor, full curve, poor fit].
N#CC(C#N)=C1C=C2C=C(N3CCOCC3)CCC2CC1 (stereo not given) was tested, and the Potency was active: 37.9 µM.
In the case of COc1ccc2c(c1)CCC1C2=NN(/C(C)=C/C(C)=O)C1c1cccc(F)c1 (stereo not given), the Potency is reported as active: 84.9 µM.
O=C1NC(=O)C2(N1)C(=O)c1cccc3cccc2c13 (stereo not given) was tested, and the Potency was active: 47.8 µM.
With CN1/C(=C\C=C(/C#N)C(=O)Nc2ccc(Cl)cc2)C(C)(C)c2ccccc21 the Potency was inconclusive: 12 µM [inhibitor, full curve, poor fit].
COc1ccccc1C(=O)Oc1ccc2c(c1)O/C(=C\c1ccncc1)C2=O was tested, and the Potency was active: 84.9 µM.
For CCN1C/C(=C/c2ccc(N3CCOCC3)cc2)C(=O)/C(=C/c2ccc(N3CCOCC3)cc2)C1, the Potency was active: 67.5 µM.
In the case of COc1cc2c3nnc(-c4ccc(F)cc4)c-3cn(Cc3cccc(C)c3)c2cc1OC, the Potency is reported as inconclusive: 95.3 µM [inhibitor, single point].
CCN(CC)c1ccc2oc(=O)c(C)nc2c1 was tested, and the Potency was active: 75.7 µM.
With O=C1c2cccc3c(O)ccc(c23)C(=O)N1c1ccc(Cl)cc1 the Potency was active: 84.9 µM.
In the case of CCCCN(C)C1=CC2=CC(=C(C#N)C#N)CCC2CC1 (stereo not given), the Potency is reported as inconclusive: 75.7 µM [inhibitor, partial curve, poor fit].
In the case of N#C/C(=C/c1ccc(N2CCCCC2)o1)C(=O)Nc1ccc(Cl)cc1, the Potency is reported as inconclusive: 5.36 µM [inhibitor, full curve, poor fit].
In the case of CC(=NNC(=O)c1ccncc1)c1ccc2ccccc2c1O, the Potency is reported as inconclusive: 16.9 µM [inhibitor, partial curve, poor fit].
For Cc1ccc(-c2nc(S(=O)(=O)c3ccc(C)cc3)c(N3CCOCC3)o2)cc1, the Potency was inconclusive: 30.1 µM [inhibitor, partial curve].
CN(C)c1ccc(C(=O)/C=C/c2ccc(Br)cc2)cc1 was tested, and the Potency was “inactive”.
In the case of Cc1ccc2oc(=O)c(/C=C(\O)c3cccs3)nc2c1, the Potency is reported as active: 23.9 µM.
COc1ccc2c(c1)C(=O)CCC2c1ccccc1 (stereo not given) was tested, and the Potency was “inactive”.
With Cc1cc2nc3c(=O)n(C)c(=O)n(C)c3nc2cc1N=CN(C)C the Potency was inconclusive: 0.19 µM [inhibitor, full curve, poor fit].
With CCCN1CC=C2C(C#N)=C(N)C(C#N)(C#N)C(c3cccc(OC)c3OC)C2C1 (stereo not given) the Potency was active: 12 µM.
In the case of O=C(NCc1ccc(F)cc1)c1cccc2c1C(=O)c1ccc(N3CCC(Cc4ccccc4)CC3)cc1S2(=O)=O, the Potency is reported as “inactive”.
CCOC(=O)c1cc2n(c1N)-c1ccccc1C2=O was tested, and the Potency was active: 23.9 µM.
For CCN(CC)c1ccc2cc(-c3nnc(-c4cccc(Cl)c4)o3)c(=O)oc2c1, the Potency was inconclusive: 2.69 µM [inhibitor, partial curve, poor fit].
Cc1cccc(C(C)C)c1-n1nnnc1-c1ccccc1 was tested, and the Potency was active: 3.01 µM.
With CCSc1nnc(-c2sc3nnc(-c4ccccc4)c(-c4ccccc4)c3c2N)o1 the Potency was inconclusive: 75.7 µM [inhibitor, partial curve, poor fit].
For Cc1ccc(/C=C/C(=O)c2ccc(N3CCOCC3)cc2)s1, the Potency was inconclusive: 60.1 µM [inhibitor, partial curve, poor fit].
With CN1CCS/C1=C\C=C1/SC(=S)N(CC(=O)O)C1=O the Potency was “inactive”.
In the case of Cc1ccc2oc(=O)n(Cc3ccc(OC(C)C)cc3)c2c1, the Potency is reported as inconclusive: 37.9 µM [inhibitor, partial curve].
For COc1ccc(SC[C@H](Cc2ccccc2)N2CC[C@@H](C)CCC2=O)cc1, the activity change, negative = inhibition was inconclusive: -44.3% [inhibitor] [at 114 µM].
With CCOCCCNc1nc2c(C)cccn2c(=O)c1/C=C1\SC(=S)N(CC(C)C)C1=O the Potency was inconclusive: 8.49 µM [inhibitor, full curve, poor fit].
With O=C1c2cccc3c(O)ccc(c23)C(=O)N1Cc1ccccc1 the Potency was active: 75.7 µM.
For Cc1ccc(O)c(C(=O)c2cc(C#N)c(=O)n(-c3nccs3)c2)c1, the Potency was inconclusive: 8.49 µM [inhibitor, single point].
For Fc1ccc(Nc2cncc(-c3ccsc3)c2)cc1Cl, the Potency was inconclusive: 42.6 µM [inhibitor, partial curve, poor fit].
CN1/C(=C\C=C2/SC(=S)N(CC(=O)O)C2=O)C(C)(C)c2ccccc21 was tested, and the Potency was “inactive”.
